The chains are these.
B1: HB22 (antibody, V domains shown)
VH: PGLVAPSQSLSITCTVSGFSLTNYGIHWVRQPPGKGLEWLVVIWSDGSTIYNSALKSRLSISKDNSKSQVFLKMNSLQTDDTAMYYCARNYYGNSYPAWFAYWGQGTLVTVSA
VL: LSLPVSLGDQASISCRSSQSIVHSNGNTYLEWYLQKPGQSPKLLIYKVSNRFSGVPDRFSGSGSGTDFTLRISRVEAEDLGVYYCFQGSHVPWTFGGGTKLEIKR
B2: HB5 (antibody, V domains shown)
VH: AELVRPGASVKISCKAFGYTFTNHNINWVKQRPGQGLDWIGYINPYNDYTSYNQKFKGKATLTVDKSSNTAYMELSSLTSEDSAVYYCARSEGWLRRGAWFAYWGQGTLVTVSA
VL: AILSVSPGERVSFSCRASQSIGTSIHWYQQRTNDSPRLLIKYASESISGIPPRFSGSGSGTDFTLSINSVESEDIADYHCQQSNSWPMLTFGAGTKLELKR
notes: also called mHB5
B3: HB17 (antibody, V domains shown)
VH: AELVIPGASVKVSCKASGYTFTSYWIHWVKQWPGQGLEWIGEINPNNGHTNYNEKFKSKATLTVDKSSSTAYMQLSSLTSEDSAVYYCARNLFYYSRPDYWGQGTSVTVSS
VL: SSLSASLGDRVTISCRASQDIGNYLNWYQQKPDGTIKLLIYYTSRLHSGVPSRFSGSGSGTDYSLTISNLEEEDIATYFCQQGNTLPPTFGGGTKLEIKR
B4: HB14 (antibody, V domains shown)
VH: SGAELVRPGASVNLSCKALGYTFTDYEMHWVKQTPVYGLEWIGTIHPRRGGTAYNQRFKGKAALTADKSSSTAYMELSSLTSEDSAVYYCARYGYPWYFDVWGAGTTVTVSS
VL: LSLPVSLGDQASISCRSSQSIVHDNGNTYLEWYLQKPGQSPKLLIYKVSNRFSGVLDKFSGSGSGTDFTLKISRVEAEDLGIYYCFQGSHVPPTFGGGTKLEIK
B5: HB18 (antibody, V domains shown)
VH: PELKKPGETVKISCKASGYSFTNYGMNWVKQAPGKGLKWMGWINTYTGEPTYADDFKGRFAFSLETSASTAFLQINNLKNEDTATYLCARYYYGSVYSAWFAYWGQGTLVTVSA
VL: B1 VL with P37A, S60G, R71K, W93Y

Where a chain is given by its changes, count along the chain named. Results are given in words; binding and its absence hold for the method and conditions named. Some entries that bind do so weakly or less than the wild type.

One test deals with recombinant EBV gp350 ectodomain protein (soluble, purified) (Epstein-Barr virus) (UniProt P03200). In words: ELISA binding to purified EBV gp350/220. A general note: ELISA stands for enzyme-linked immunosorbent assay.
Turning to B1, the binding entry was “binds”.
With B2, the binding entry is “binds”.
As for B3, the binding result is given as “binds”.
Turning to B4, the binding entry is “binds”.

A further test shares this target. Put plainly: indirect ELISA, 10 µg/ml purified antibody.
As for B1, the binding entry is on record as “binds”.
In the case of B5, the binding entry is “binds”.
On to B2, for which the binding result is on record as “binds”.
B3: the binding entry is recorded as “binds”.
Still for that read-out and setting: then B4, with “binds”.

For the next test the target is unchanged. Put plainly: indirect ELISA, soluble gp350 0.5 µg/ml.
Consider B1, for which the binding result is on record as “binds”.
For B5, the binding entry is listed as “binds”.
For B2, the binding result is recorded as “binds”.
In the case of B3, the binding entry was “binds”.
With B4, the binding entry is recorded as “binds”.

For the origin of these results see patent US20210115113A1 (CITY OF HOPE, published 2021).
